Results published in publication PMC7664998.

Molecular target: dCIZ1:3Xflag (Drosophila)
Test: co-IP; anti-FLAG M2 magnetic beads; S2 cells transfected with dCIZ1:3Xflag, lysed in TBS with 1% Triton X-100 and 1 mM PMSF; western blot

B1: Drice (enzyme, UniProt O01382 1-339)
chain: MDATNNGESADQVGIRVGNPEQPNDHTDALGSVGSGGAGSSGLVAGSSHPYGSGAIGQLANGYSSPSSSYRKNVAKMVTDRHAAEYNMRHKNRGMALIFNHEHFEVPTLKSRAGTNVDCENLTRVLKQLDFEVTVYKDCRYKDILRTIEYAASQNHSDSDCILVAILSHGEMGYIYAKDTQYKLDNIWSFFTANHCPSLAGKPKLFFIQACQGDRLDGGVTMQRSQTETDGDSSMSYKIPVHADFLIAYSTVPGFYSWRNTTRGSWFMQSLCAELAANGKRLDILTLLTFVCQRVAVDFESCTPDTPEMHQQKQIPCITTMLTRILRFSDKQLAPAGRV
binding: no binding

Results are given in words; binding and its absence hold for the method and conditions named. Binding seen in cells or lysates may run through a third protein.
